Measured values taken from patent US12473266B2, “Benzoxazole and related compounds useful as chaperone-mediated autophagy modulators” (Albert Einstein College of Medicine, priority 2018, dated 2025).

Conditions: human, microsomes, 1 h, 3 μM
Experimental: Microsome stability is determined in human, rat, and mouse, liver microsomes.
Compound at 3 μM final concentration along with 0.5 mg/mL microsome protein and 1 mM NADPH was incubated for 0, 5, 15, 30 and 60 min. As a negative control, test compound is incubated with microsomes in the absence of NADPH. Samples are quenched with methanol and centrifuged for 25 min at 2500 rpm to precipitate proteins. Supernatants are analyzed (N=3) by LC-MS./MS. The ln peak area ratio (compound peak area/internal standard peak area) is plotted against time and the gradient of the line determined the elimination rate constant [k=(−1)(slope)].
R^2 is the correlation coefficient of the linear regression for the determination of kinetic constant. T1/2 is the half life and CLint (mic) is the intrinsic clearance. CLint(liver)=CLint (mic)*mg microsomal protein/g liver weight*g liver weight/kg body weight. Liver weight/kg body weight is 20 g/kg for human.

- Remaining (T = 60 min): 0.2%
SMILES: CCCNCC(O)COc1ccccc1C(=O)CCc1ccccc1 (stereo not shown) [Propafenone]
